Record: PubChem BioAssay AID1259308 (NCATS, 2017)

Purpose: 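Candidate targets for better recombinant protein yield in mammalian cells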 (primary screen)
Cells: human HEK293 embryonic kidney cells stably expressing firefly luciferase (HEK-CMV-Luc2-Hygro)
Reagent: single siRNA against human genes, 0.8 pmol siRNA per well
Duration: 72 h
Detection: 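Reporter luminescence and viable-cell signal on separate replicate plates, given as percent of non-targeting control and median/MAD z-scores, plus per-cell luciferase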
Reading the numbers: total luciferase, z-score and total luciferase, % of control: higher = more reporter protein produced; luciferase per cell, z-score: higher = more reporter output per viable cell; viable cells, % of control: higher = more viable cells
Hit rule: 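An siRNA counts as active if its total luciferase robust z-score exceeds 3; genes with two or more such siRNAs out of three were retested with fresh siRNAs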
Meaning of the calls: active = raised luciferase; inactive = no rise
The whole screen tested about 59,000 reagents; this is a part drawn at random. In the full data, about 1,510 (2.6%) got an active call. 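Calls use total luciferase alone and ignore viability, so some active siRNAs may act by altering cell number.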 Reagents against one gene are numbered here.

gene	reagent	total luciferase, z-score	total luciferase, % of control	luciferase per cell, z-score	viable cells, % of control	Call
VIPR1	1	0.604	93.9	0.585	90	inactive
VIPR1	2	-0.526	71.4	0.0395	79	inactive
VIPR1	3	0.149	84.8	-0.353	104	inactive
DESI2	1	0.00844	82.1	-0.125	94.8	inactive
DESI2	2	-0.85	65	-0.43	81.3	inactive
DESI2	3	0.627	94.4	0.505	92.3	inactive
ALOX12B	1	-0.481	72.3	-0.566	93.8	inactive
ALOX12B	2	-0.682	68.3	-0.0421	77.2	inactive
ALOX12B	3	-0.0726	80.4	0.556	77.6	inactive
SPP1	1	0.684	95.5	0.534	92.7	inactive
SPP1	2	3.07	143	1.67	103	active
SPP1	3	-0.353	74.9	-0.621	98.5	inactive
HYAL4	1	-0.671	68.5	-0.787	94.2	inactive
HYAL4	2	0.0314	82.5	-0.298	99.7	inactive
HYAL4	3	0.638	94.6	0.384	95.5	inactive
ABCC5	1	-0.443	73.1	-0.135	84.6	inactive
ABCC5	2	-0.0295	81.3	-0.544	105	inactive
ABCC5	3	-0.335	75.2	-0.0816	85.9	inactive
CCDC28A	1	-0.359	74.8	-0.624	98.5	inactive
CCDC28A	2	-1.23	57.4	-0.719	77.5	inactive
CCDC28A	3	0.25	86.9	1.2	70.7	inactive
RSPH6A	1	0.42	90.2	0.965	78.2	inactive
RSPH6A	2	0.466	91.1	0.308	93.9	inactive
RSPH6A	3	0.279	87.4	0.363	88.8	inactive
PLSCR2	1	-0.0912	80.1	-0.249	95.6	inactive
PLSCR2	2	-0.0742	80.4	0.581	77.1	inactive
PLSCR2	3	-0.0136	81.6	-0.145	94.7	inactive
SERP1	1	0.913	100	0.457	99.1	inactive
SERP1	2	-0.915	63.7	-0.896	90.1	inactive
SERP1	3	-0.26	76.7	-0.396	95.1	inactive
GRAP	1	-1.25	57	-0.844	79.5	inactive
GRAP	2	0.131	84.5	-0.0419	95.5	inactive
GRAP	3	1.19	106	0.417	106	inactive
BEND4	1	-0.829	65.4	-0.882	92.2	inactive
BEND4	2	0.844	98.7	0.738	90.8	inactive
BEND4	3	0.951	101	0.278	105	inactive
UROC1	1	0.72	96.2	-0.148	112	inactive
UROC1	2	0.667	95.1	0.329	97.5	inactive
UROC1	3	0.767	97.1	-0.259	116	inactive

Called active (from the list above):
gene	reagent	total luciferase, z-score	total luciferase, % of control	luciferase per cell, z-score	viable cells, % of control	Call
SPP1	2	3.07	143	1.67	103	active
